In article PMC10774353:
These are yes or no findings as the source states them, for the method shown. A result given as binding can be weak or reduced; the word gives no strength.

Biological target: T1, Rsph3b (mouse) (UniProt Q9DA80)
T1 sequence: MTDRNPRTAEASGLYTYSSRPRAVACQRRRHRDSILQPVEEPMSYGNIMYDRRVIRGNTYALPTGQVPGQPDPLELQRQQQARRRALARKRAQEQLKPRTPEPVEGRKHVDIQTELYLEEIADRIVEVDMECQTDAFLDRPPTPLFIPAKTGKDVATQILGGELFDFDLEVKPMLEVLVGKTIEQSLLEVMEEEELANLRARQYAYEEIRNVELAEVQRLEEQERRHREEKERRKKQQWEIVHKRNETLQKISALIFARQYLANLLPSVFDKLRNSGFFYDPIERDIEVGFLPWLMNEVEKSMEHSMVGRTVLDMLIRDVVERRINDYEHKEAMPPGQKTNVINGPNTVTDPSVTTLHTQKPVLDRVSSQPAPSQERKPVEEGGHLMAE
Experiment: cryo-EM structure; RS head-neck complex co-expressed in HEK293F, purified by Strep-Tactin then anti-FLAG beads, cross-linked by GraFix (0-0.1% glutaraldehyde, 10-40% glycerol, 4 °C); monomer map 3.28 Å, dimer map 3.57 Å; both purified

binding: binds
Substance: HA-tagged Rsph2 (from UniProt F6QU18)
